Data taken from PMC7819943, “Rice protein-binding microarrays: a tool to detect cis-acting elements near promoter regions in rice”.
This is one part of the list.

By UniProt entry, the sequences of proteins in these tests, tags left out.
UniProt Q0JBA9, entry or part of it: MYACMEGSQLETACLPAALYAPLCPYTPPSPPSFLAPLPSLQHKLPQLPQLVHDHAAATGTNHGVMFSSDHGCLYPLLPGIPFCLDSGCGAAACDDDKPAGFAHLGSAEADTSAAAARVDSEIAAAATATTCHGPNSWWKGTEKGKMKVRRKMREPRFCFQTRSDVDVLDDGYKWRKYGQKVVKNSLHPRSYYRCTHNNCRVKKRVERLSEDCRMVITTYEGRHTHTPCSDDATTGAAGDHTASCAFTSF

Molecular target: OsWRKY34 (Oryza sativa, UniProt Q0JBA9 1-250)
Experiment: protein-binding microarray (RPBM); PBS, 2% BSA, 51.3 ng/ul salmon testes DNA, 50 uM zinc acetate, 200 nM TF, 25 C, 1 h; high values mean tight binding
Details: protein: recombinant; tags: N-terminal polyhistidine and DsRed monomer fusion (pET32a); label: CyDye5-dUTP incorporated in the synthesized complementary strand; 3' TTTTT single-stranded linker to array surface; dsDNA, one strand shown
Method in brief: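 Transcription factors, each fused N-terminally to a polyhistidine tag and DsRed, were expressed in E. coli BL21-CodonPlus and purified on Ni–NTA. A custom Agilent array was made double-stranded by primer extension with Cy5-dUTP and blocked with 2% BSA. It was incubated with 200 nM protein in PBS, 2% BSA, salmon testes DNA and 50 µM zinc acetate at 25 °C for 1 h, then washed. The binding signal is per-feature fluorescence intensity (arbitrary units) read on an Axon 4000B scanner.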

| Sequence | binding signal |
| --- | --- |
| TGACATTTAAATTCTGTTTCTCTCTTTGTGTTTTAGTTCCCGGAGTCACCTAGTGCAG | 9720 fluorescence intensity (a.u.) |
| CTTCAACTCTCACTCCATCATTCAATACTGGGCCTTGCTTCGGAGTCACCTAGTGCAG | 8040 fluorescence intensity (a.u.) |
| CGGTTTTTTAGGGAATGGTTTTCCACGGTTTTCTTTTTTCCGGAGTCACCTAGTGCAG | 8320 fluorescence intensity (a.u.) |
| ACCCCGTTCAACGCTCGCTTATATATATTCCCCTCTCGCACGGAGTCACCTAGTGCAG | 8640 fluorescence intensity (a.u.) |
| CTCGGTATCGGATGGATTTATTCCGTTTTATAAGGGAGGGCGGAGTCACCTAGTGCAG | 8790 fluorescence intensity (a.u.) |
| TCTCGCTCCTCATGCTCCTCTCCCGGCGGCGACGCTATGCCGGAGTCACCTAGTGCAG | 8080 fluorescence intensity (a.u.) |
| TTGGTTCAGCTCAACCTCATGCTCCACGCTATCCGCCACTCGGAGTCACCTAGTGCAG | 9760 fluorescence intensity (a.u.) |
| GGTTGGTAGTGGTGAACTGGTTGGTGTTGGTGTTGTTGTTCGGAGTCACCTAGTGCAG | 10700 fluorescence intensity (a.u.) |
| GATTAGTCATCCGTGACGGGCTCCTTACTACGCTGGTTTGCGGAGTCACCTAGTGCAG | 8430 fluorescence intensity (a.u.) |
| ACCCACACACGCATTCACATCTCGCAATCTCACATCGCATCGGAGTCACCTAGTGCAG | 8920 fluorescence intensity (a.u.) |
| CTCCCACGAACCGCACCTCACCTTCTTTCTCTTTCATTCTCGGAGTCACCTAGTGCAG | 8450 fluorescence intensity (a.u.) |
| TGCACACACTCACTCCTATAAACATATACACGTACACTCTCGGAGTCACCTAGTGCAG | 9240 fluorescence intensity (a.u.) |
| ATGTCTCTTCTCCATCCCACCAGTGTTGACTCTTGCGGCTCGGAGTCACCTAGTGCAG | 8070 fluorescence intensity (a.u.) |
| GGTATATGTTGCACGTAGTGTGCGCTTGTGGTTTGTGGTGCGGAGTCACCTAGTGCAG | 8200 fluorescence intensity (a.u.) |
| GAAAGGTAGGGTTAGGAGGTGGCGCGTGCGTGTGGGTTGGCGGAGTCACCTAGTGCAG | 9010 fluorescence intensity (a.u.) |
| CCACATATCATTGTCACGTATAATGGTATCTTGCAACTCACGGAGTCACCTAGTGCAG | 9630 fluorescence intensity (a.u.) |
| GTATGTATGAATACATTAGTGCTTTCCAGTCTCTTGTACTCGGAGTCACCTAGTGCAG | 9300 fluorescence intensity (a.u.) |
| ATCTTCCTTATATATACGCGCTCTCCCATTCGCGTGTGCTCGGAGTCACCTAGTGCAG | 10100 fluorescence intensity (a.u.) |
| AAACCCTAGCCGCCGCCGCCGCCGCCTCCGCGTCCGCCTCCGGAGTCACCTAGTGCAG | 8260 fluorescence intensity (a.u.) |
| CCACCCGCTGTTGCTTCCGCATCACCCATTCCCTTTTTCCCGGAGTCACCTAGTGCAG | 12100 fluorescence intensity (a.u.) |
| GGCATACTGTACTGCCTCTCTCTCTCTCTCTCTCTCTCTCCGGAGTCACCTAGTGCAG | 9610 fluorescence intensity (a.u.) |
| CGCCGGCGCTCCAGCTCCCGTCCCTGCAGACGTGCGAAAGCGGAGTCACCTAGTGCAG | 8370 fluorescence intensity (a.u.) |
| GACGAGGTTACTCCCCGTCATGCACTCTGCTTCATCGCGCCGGAGTCACCTAGTGCAG | 8870 fluorescence intensity (a.u.) |
| CCTACCCCTACCGCTCCTGCCTGCTTCGCCCGCCGCCGCCCGGAGTCACCTAGTGCAG | 8340 fluorescence intensity (a.u.) |
| CCCGACACAGGCACTGCATTCCGCGACACATTCCTCCCTACGGAGTCACCTAGTGCAG | 8690 fluorescence intensity (a.u.) |
| CGTGTTGGGGTTCTCTTCCTGCTGCTTTGGCCACCTGGGACGGAGTCACCTAGTGCAG | 12500 fluorescence intensity (a.u.) |
| TATGGTTGAGAGACGCGAGTAAAACTTGACTTTTTTTTTACGGAGTCACCTAGTGCAG | 8340 fluorescence intensity (a.u.) |

| Sequence | binding signal |
| --- | --- |
| TGTTTGACACCGTTGACTTTTTAGCACATGTTTGACCGTTCGGAGTCACCTAGTGCAG | 38000 fluorescence intensity (a.u.) |
| TCCGCCCTCATTATCTCCTCGTTTTTCCCTGATCTTTTCTCGGAGTCACCTAGTGCAG | 10400 fluorescence intensity (a.u.) |
| AAACATTTCCGGGTTCCCTCCTCTTCTCTTCCCGCGAAAACGGAGTCACCTAGTGCAG | 9130 fluorescence intensity (a.u.) |
| CGAAAACGCATCCATTCATCAACACACATCAACCTGACAACGGAGTCACCTAGTGCAG | 9130 fluorescence intensity (a.u.) |
| CGCGTCACCTGCTTGGCGCAGTACTTCTGCTACACTCTCTCGGAGTCACCTAGTGCAG | 8470 fluorescence intensity (a.u.) |
| AGGTTGAATATATCATGCCTCTGCTCAACTTCTGGTATTTCGGAGTCACCTAGTGCAG | 8060 fluorescence intensity (a.u.) |
| CACATGTTATTTACTCCCACGCTCGATCTTCTTTTTTTTCCGGAGTCACCTAGTGCAG | 15100 fluorescence intensity (a.u.) |
| CTATCCACCGTTCCATAGCACCAATGGGCAAGCAAGCTACCGGAGTCACCTAGTGCAG | 8600 fluorescence intensity (a.u.) |
| ACAGTTTATGAATCCTTTTTGTTTTACATTTTCTTCAGCTCGGAGTCACCTAGTGCAG | 11100 fluorescence intensity (a.u.) |
| AGTTAGAATCATTGTCCAAAAGTATTTATATCTTGTTCCACGGAGTCACCTAGTGCAG | 8180 fluorescence intensity (a.u.) |
| TCCCACCTGCCTCGCTACCTCCGACTTCGCCTCGTCCCCACGGAGTCACCTAGTGCAG | 8340 fluorescence intensity (a.u.) |
| ATTTTTATTTTCCACAACTAATTGTCCTTTGTTGAATTTCCGGAGTCACCTAGTGCAG | 13900 fluorescence intensity (a.u.) |
| CCCAAAGGCCCATGACAGGTGATGCAGCATCTTGTTTCTTCGGAGTCACCTAGTGCAG | 8690 fluorescence intensity (a.u.) |
| ACATAGACACAATTTCACCATTTCTAATCGGACGGCGCGCCGGAGTCACCTAGTGCAG | 8220 fluorescence intensity (a.u.) |
| AAAAACGGCGACGACACCCAAACCCATCGTCGCTTCCGCGCGGAGTCACCTAGTGCAG | 8150 fluorescence intensity (a.u.) |
| GGTGTAAGCGGATAGCGCATCGGGTAGGGATCATTAAGTACGGAGTCACCTAGTGCAG | 8440 fluorescence intensity (a.u.) |
| GTCTCATGCAAGACATGGTTTCTTTCTCTTTCCTCATTTACGGAGTCACCTAGTGCAG | 8930 fluorescence intensity (a.u.) |
| TCTAGGGTTAGGGTTTCGTGATTTTTGGTTTTTTATTTTTCGGAGTCACCTAGTGCAG | 16900 fluorescence intensity (a.u.) |
| CGCAATTGACATTTTATCACACGTTTAATCATTCATCTTACGGAGTCACCTAGTGCAG | 8760 fluorescence intensity (a.u.) |
| TGTGTGGTGGTTCTGAGTTGGTGGACGGCGATCTGCAGTCCGGAGTCACCTAGTGCAG | 10500 fluorescence intensity (a.u.) |
| AACTTTACTTTTTCTCATAGTGTTGATTAGATATATGTTTCGGAGTCACCTAGTGCAG | 10600 fluorescence intensity (a.u.) |
| AATTGGGTTCGAATTTTTCTCTGGTTCGCTTGTGATTTTGCGGAGTCACCTAGTGCAG | 8240 fluorescence intensity (a.u.) |
| TAGACCTCTCATACTTATGGTAGCTGCCGGTTGGTTGTCACGGAGTCACCTAGTGCAG | 9120 fluorescence intensity (a.u.) |
| TTGGTAGCCTCCCTCGCCGCCGCTTCGCCGCATTTCGGTTCGGAGTCACCTAGTGCAG | 8800 fluorescence intensity (a.u.) |
| GTCCAAGTTTGCCTTTCTCACTGGGGAGCGGGTGGGCTGTCGGAGTCACCTAGTGCAG | 21000 fluorescence intensity (a.u.) |
| ATTAATGTTGTGTGTTAAAACTTTCTAATGTGTCAGCTACCGGAGTCACCTAGTGCAG | 11000 fluorescence intensity (a.u.) |
| AGTGTTTCCCTGCAAAACAAGTTTCACGTTCCTTTTTTTTCGGAGTCACCTAGTGCAG | 8770 fluorescence intensity (a.u.) |

Not a retest: entries from further up.

| Sequence | binding signal |
| --- | --- |
| GACGAGGTTACTCCCCGTCATGCACTCTGCTTCATCGCGCCGGAGTCACCTAGTGCAG | 8870 fluorescence intensity (a.u.) |
| CCTACCCCTACCGCTCCTGCCTGCTTCGCCCGCCGCCGCCCGGAGTCACCTAGTGCAG | 8340 fluorescence intensity (a.u.) |
| CCCGACACAGGCACTGCATTCCGCGACACATTCCTCCCTACGGAGTCACCTAGTGCAG | 8690 fluorescence intensity (a.u.) |
